# Measurements reported in publication PMC7140707.
# T1: His6-Gis1 (yeast (S. cerevisiae)) (UniProt Q03833)
# T1 sequence: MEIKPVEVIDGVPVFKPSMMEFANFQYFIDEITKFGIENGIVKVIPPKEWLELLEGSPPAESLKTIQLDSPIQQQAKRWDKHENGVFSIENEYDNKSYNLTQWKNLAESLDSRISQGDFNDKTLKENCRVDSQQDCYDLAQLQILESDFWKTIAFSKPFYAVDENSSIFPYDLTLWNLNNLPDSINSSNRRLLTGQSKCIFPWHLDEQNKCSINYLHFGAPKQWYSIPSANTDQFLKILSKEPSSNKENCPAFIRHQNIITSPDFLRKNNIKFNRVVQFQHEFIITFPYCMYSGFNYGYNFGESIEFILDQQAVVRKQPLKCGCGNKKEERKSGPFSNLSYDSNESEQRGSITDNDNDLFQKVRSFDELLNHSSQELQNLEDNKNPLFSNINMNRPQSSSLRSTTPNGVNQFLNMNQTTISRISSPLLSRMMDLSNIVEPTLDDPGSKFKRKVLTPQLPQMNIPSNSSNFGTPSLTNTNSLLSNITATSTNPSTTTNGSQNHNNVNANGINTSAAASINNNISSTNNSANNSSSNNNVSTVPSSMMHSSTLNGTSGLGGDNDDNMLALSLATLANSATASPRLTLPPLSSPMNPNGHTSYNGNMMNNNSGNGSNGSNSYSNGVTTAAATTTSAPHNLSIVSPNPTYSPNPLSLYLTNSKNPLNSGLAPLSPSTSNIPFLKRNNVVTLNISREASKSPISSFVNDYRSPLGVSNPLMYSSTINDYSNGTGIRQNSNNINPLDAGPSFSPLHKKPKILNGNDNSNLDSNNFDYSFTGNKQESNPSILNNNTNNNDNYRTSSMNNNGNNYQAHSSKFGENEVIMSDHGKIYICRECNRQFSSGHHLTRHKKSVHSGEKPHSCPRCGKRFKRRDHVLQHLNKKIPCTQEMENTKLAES
# B1: GRX2 (protein, UniProt P17695 31-143)
# chain: STPKMVSQETVAHVKDLIGQKEVFVAAKTYCPYCKATLSTLFQELNVPKSKALVLELDEMSNGSEIQDALEEISGQKTVPNVYINGKHIGGNSDLETLKKNGKLAEILKPVFQ
# B2: HPA3 (protein, UniProt P39979 1-161)
# chain: MSNEEPEKMVNDRIVVKAIEPKDEEAWNKLWKEYQGFQKTVMPPEVATTTFARFIDPTVKLWGALAFDTETGDAIGFAHYLNHLTSWHVEEVVYMNDLYVTERARVKGVGRKLIEFVYSRADELGTPAVYWVTDHYNHRAQLLYTKVAYKTDKVLYKRNGY
# B3: YGR237C (protein, UniProt P50089 1-785)
# chain: MSSAKTFTKHISFDDLAPSLIDDQATIIKNDSHHVGLNNHFLHIPPQFNPVYKNTLTGSHGSNDLATDESLDSPEDEEASSPLQLGTPTSTTSGVPHFYTQVFSPAAHDPSKSYLRSPSVERSRSESPMFRSRRRTSVRLPPPPKVSVLKKSRKAADEQGPIDDIDIGDLDFELERKMTKMTERNTQKNSGSRKGYTQAAFANLNEVEDRIETKSMVDLSESENMESSKKRSKSFAGMTDEELAKLEEFYISKGRSNKTKIDQFDFGEQVPVYLNTTESKTDSSNVTDPLAAIYPSRPTIVHNAISMTIDHPDYENYISNTKEKLNCKDKDDDVDLRVVSCYISGRRYTWSSVDWYVENLTRNGDHLVIITTIPEFEAKIDTLAYKEKRRHRLERMTSNTSESMTTASHSLIGPDLSSPLSTGIRIEAIHNEAKQTCSDILNYYARRLATKIVRISIEMVKENSTRSAIISATSLYRPSLQVISTVSANIQIKFRNGKVKLPFFLMKHFAMPAFVVPFEFIKPELLIKPRVDKDEQDNSDDLKTEVRKKERLQWLSALIRRTLENPFTKHKVVDSDDEESDSDESVTSVNEYFPISPEKKEEMEFFDKMGYVRPKPSRQVLLDDNTLMKYDSSGRKLTPIESRNSRRSSKRSSRIQFNNNGIYKVKSMVDDIYNHETASTPHIKTALKWDNEDPKMKFTSHPMRKTKSAGLSPRTSSTSSSSGQRKAHHHHHHHNHVSRTKTTESTKSGNSKKDSSSSSTNDHQFKRSEKKKKSKFGSIFKKVFG
# B4: WHI2 (protein, UniProt P12611 1-486)
# chain: MDDIITQVSPDNAESAPILQEQQQQQNSQYEGNEEDYGDSLIHLNIQENHYFITRDQLMSLPESLLLCLFPSGVFLDRCGQVITNLTRDDEVYIVNFPPDCFEYIMEIYTKAHDDLYNHPVEKFFDRPSSSFVSNAKGFFGLSSNNSISSNNEQDILHQKPAIIVLREDLDYYCVPQEEFQFDSTNEENNEDLLRHFMAQVKMAAGSYLTSKTSIFQGLYSSNRLKQQQQQQKIEKGSNSSSNTKSTSKKLGPAEQHLMDMLCSSGFTKETCWGNRTQETGKTVISSLSLCRLANETTEGFRQKFNEAKAKWEAEHKPSQDNFITPMQSNISINSLSASKSNSTISTARNLTSGSTAPATARDKRKSRLSKLADNVRSHSSSRHSSQTRSKPPELPKLYDLVPKPNINAKLLLFWRKPARKCWWGEEDIELEVEVFGSWKDESKKIIELILPTNVDPEAELHKIIVPVRLHIRRVWTLELSVIGVQ
# B5: GOR1 (protein, UniProt P53839 1-350)
# chain: MSKKPIVLKLGKDAFGDQAWGELEKIADVITIPESTTREQFLREVKDPQNKLSQVQVITRTARSVKNTGRFDEELALALPSSVVAVCHTGAGYDQIDVEPFKKRHIQVANVPDLVSNATADTHVFLLLGALRNFGIGNRRLIEGNWPEAGPACGSPFGYDPEGKTVGILGLGRIGRCILERLKPFGFENFIYHNRHQLPSEEEHGCEYVGFEEFLKRSDIVSVNVPLNHNTHHLINAETIEKMKDGVVIVNTARGAVIDEQAMTDALRSGKIRSAGLDVFEYEPKISKELLSMSQVLGLPHMGTHSVETRKKMEELVVENAKNVILTGKVLTIVPELQNEDWPNESKPLV
# B6: IMP2 (protein, UniProt P46972 1-177)
# chain: MFRAGSSKRFLRNTLIAISWVPVLLTINNNVVHIAQVKGTSMQPTLNPQTETLATDWVLLWKFGVKNPSNLSRDDIILFKAPTNPRKVYCKRVKGLPFDTIDTKFPYPKPQVNLPRGHIWVEGDNYFHSIDSNTFGPISSGLVIGKAITIVWPPSRWGTDLKLSTGRDCISKRAILE
# B7: HIT1 (protein, UniProt P46973 1-164)
# chain: MVSSAVKCGICRGVDGKYKCPKCGVRYCSLKCYKDAAKHVHKESEQPRAGTEANVEVVNNDKIINSSLAMNKTLKTKAFDDIYQNSAELQELLKYNTVKFHLAKVYRILSSTVNDGSSGKMNSDLQKELAVNYLNTLRYGGIHYNEAIEEFCQILLDKLNAVKK
# B8: GPD2 (protein, UniProt P41911 17-440)
# chain: HPVLYTRRAYKILPSRSTFLRRSLLQTQLHSKMTAHTNIKQHKHCHEDHPIRRSDSAVSIVHLKRAPFKVTVIGSGNWGTTIAKVIAENTELHSHIFEPEVRMWVFDEKIGDENLTDIINTRHQNVKYLPNIDLPHNLVADPDLLHSIKGADILVFNIPHQFLPNIVKQLQGHVAPHVRAISCLKGFELGSKGVQLLSSYVTDELGIQCGALSGANLAPEVAKEHWSETTVAYQLPKDYQGDGKDVDHKILKLLFHRPYFHVNVIDDVAGISIAGALKNVVALACGFVEGMGWGNNASAAIQRLGLGEIIKFGRMFFPESKVETYYQESAGVADLITTCSGGRNVKVATYMAKTGKSALEAEKELLNGQSAQGIITCREVHEWLQTCELTQEFPLFEAVYQIVYNNVRMEDLPEMIEELDIDDE
# B9: GYP1 (protein, UniProt Q08484 1-637)
# chain: MGVRSAAKEMHERDHNSDSSSLVTSLMKSWRISSASSSKKPSLYKMNTTESTSLPSGYASSADRDRRTSDGNFEAMAKQQASTRRTSNSYSPLRYVNPTLSTASNESPRPALLLRQHHQRHHHHQQPRHSSSGSVGNNCSNSTEPNKKGDRYFKDLDEDWSAVIDDYNMPIPILTNGGFGTPVAPTRTLSRKSTSSSINSISNMGTSAVRNSSSSFTYPQLPQLQKEKTNDSKKTQLEIENERDVQELNSIIQRISKFDNILKDKTIINQQDLRQISWNGIPKIHRPVVWKLLIGYLPVNTKRQEGFLQRKRKEYRDSLKHTFSDQHSRDIPTWHQIEIDIPRTNPHIPLYQFKSVQNSLQRILYLWAIRHPASGYVQGINDLVTPFFETFLTEYLPPSQIDDVEIKDPSTYMVDEQITDLEADTFWCLTKLLEQITDNYIHGQPGILRQVKNLSQLVKRIDADLYNHFQNEHVEFIQFAFRWMNCLLMREFQMGTVIRMWDTYLSETSQEVTSSYSMSSNDIKPPVTPTEPRVASFVTPTKDFQSPTTALSNMTPNNAVEDSGKMRQSSLNEFHVFVCAAFLIKWSDQLMEMDFQETITFLQNPPTKDWTETDIEMLLSEAFIWQSLYKDATSHWL
# B10: AHA1 (protein, UniProt Q12449 1-350)
# chain: MVVNNPNNWHWVDKNCIGWAKEYFKQKLVGVEAGSVKDKKYAKIKSVSSIEGDCEVNQRKGKVISLFDLKITVLIEGHVDSKDGSALPFEGSINVPEVAFDSEASSYQFDISIFKETSELSEAKPLIRSELLPKLRQIFQQFGKDLLATHGNDIQVPESQVKSNYTRGNQKSSFTEIKDSASKPKKNALPSSTSTSAPVSSTNKVPQNGSGNSTSIYLEPTFNVPSSELYETFLDKQRILAWTRSAQFFNSGPKLETKEKFELFGGNVISELVSCEKDKKLVFHWKLKDWSAPFNSTIEMTFHESQEFHETKLQVKWTGIPVGEEDRVRANFEEYYVRSIKLTFGFGAVL
# B11: VTS1 (protein, UniProt Q08831 1-523)
# chain: MKHPYEEFPTGSKSPYNMSRGAHPGAVLLSPQSSAINKNNPGSNSGNNQGNSSVTANVLSPQSHSMSLNDMLDQQSFMLDTAGTRAQPLQQQQQQQQQQQQASLPSLNIQTVSSTAAGSAIVSPMMQSPKALQSTLSSTSMYLDSFQRSPNNILGIPSQSGSIPLPQSRQSQQQSQSQKNDPNMGTNFSQDINQLCSWISMLNSSQQNTVMDNILSILNDDVLKYTKLKIETLTNTPFISPPLPAIASPIPNRDDTQILNIDSVFSSSPITNDPENTDNLLYQNWSPQPHSIPISQPIYDNITDASQRSKSAEPHVNSSPNLIPVQKQFNNGNSTKYKKLPSENPNYLSHSLSSSHSFFQPKKRSNMGNEYNSHHHHSLHHPLHNTTSYFSNTSRPSGTDLNKSNQNVFNNTITHPNAGPTSATSTSTSSNGNTPLSSNSSMNPKSLTDPKLLKNIPMWLKSLRLHKYSDALSGTPWIELIYLDDETLEKKGVLALGARRKLLKAFGIVIDYKERDLIDRSAY
# Molecular target: T1, His6-Gis1 (yeast (S. cerevisiae))
# Assay: affinity purification with mass spectrometry; His6-Gis1 pre-bound to a Ni Sepharose 6 Fast Flow column; crude yeast extract (Δgis1 cells grown in air or under hypoxia, Δgis1Δhem1 cells at intermediate or high ALA) loaded, 4 °C, 2 h; eluted complexes separated by SDS-PAGE, bands excised, MS; only the target purified
row,binding,Binder
1,binds,B1
2,binds,B2
3,binds,B3
4,binds,B4
5,binds,B5
6,binds,B6
7,binds,B7
8,binds,B8
9,binds,B9
10,binds,B10
11,binds,B11

# No constants are given. Whether binding was seen depends on the method and setting. In cells and extracts the contact can be indirect. A yes stands for co-enrichment or nearness to the bait. Other partners may have been found. Where a sequence is shown, tags or fusion partners need not be part of it.
